The target of this assay is T1, Flag-tagged TBC1 Domain Family Member 25 (TBC1D25) (UniProt Q3MII6).
T1 sequence: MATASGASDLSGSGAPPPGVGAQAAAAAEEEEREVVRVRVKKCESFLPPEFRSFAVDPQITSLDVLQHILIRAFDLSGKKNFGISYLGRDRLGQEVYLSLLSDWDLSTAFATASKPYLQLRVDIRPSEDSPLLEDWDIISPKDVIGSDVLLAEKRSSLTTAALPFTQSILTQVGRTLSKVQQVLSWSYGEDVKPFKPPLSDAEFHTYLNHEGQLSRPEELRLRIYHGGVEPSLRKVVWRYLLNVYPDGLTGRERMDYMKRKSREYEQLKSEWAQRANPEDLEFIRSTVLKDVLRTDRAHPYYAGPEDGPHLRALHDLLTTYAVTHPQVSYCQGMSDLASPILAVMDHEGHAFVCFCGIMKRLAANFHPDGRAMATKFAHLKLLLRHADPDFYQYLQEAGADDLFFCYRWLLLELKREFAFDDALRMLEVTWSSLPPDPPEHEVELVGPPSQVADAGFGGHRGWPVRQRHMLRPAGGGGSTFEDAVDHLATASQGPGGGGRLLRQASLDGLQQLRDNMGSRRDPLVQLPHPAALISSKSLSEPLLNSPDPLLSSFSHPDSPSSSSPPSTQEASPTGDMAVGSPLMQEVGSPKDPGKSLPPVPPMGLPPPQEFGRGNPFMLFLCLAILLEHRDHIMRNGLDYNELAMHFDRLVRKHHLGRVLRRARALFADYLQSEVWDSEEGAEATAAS
Briefly: co-IP; 293T cells co-transfected with Flag-TBC1D25 and HA-TAK1; lysed in IP buffer (20 mM Tris-HCl pH 7.4, 150 mM NaCl, 1 mM EDTA, 1% Triton X-100); anti-Flag M2 or anti-HA magnetic beads, 4 C overnight; immunoblot. (In general: In western blotting, separated proteins are transferred to a membrane and probed.)

Results are given in words; binding and its absence hold for the method and conditions named. Binding seen in cells or lysates may run through a third protein. Some results given as binding are weak or reduced against the parent protein; the word gives no strength. Tags and fused reporters may be left off the sequences shown.

B1: HA-tagged TAK1 (transforming growth factor-beta-activated kinase 1) (enzyme, UniProt O43318-2 1-579)
chain: MSTASAASSSSSSSAGEMIEAPSQVLNFEEIDYKEIEVEEVVGRGAFGVVCKAKWRAKDVAIKQIESESERKAFIVELRQLSRVNHPNIVKLYGACLNPVCLVMEYAEGGSLYNVLHGAEPLPYYTAAHAMSWCLQCSQGVAYLHSMQPKALIHRDLKPPNLLLVAGGTVLKICDFGTACDIQTHMTNNKGSAAWMAPEVFEGSNYSEKCDVFSWGIILWEVITRRKPFDEIGGPAFRIMWAVHNGTRPPLIKNLPKPIESLMTRCWSKDPSQRPSMEEIVKIMTHLMRYFPGADEPLQYPCQYSDEGQSNSATSTGSFMDIASTNTSNKSDTNMEQVPATNDTIKRLESKLLKNQAKQQSESGRLSLGASRGSSVESLPPTSEGKRMSADMSEIEARIAATTGNGQPRRRSIQDLTVTGTEPGQVSSRSSSPSVRMITTSGPTSEKPTRSHPWTPDDSTDTNGSDNSIPMAYLTLDHQLQPLAPCPNSKESMAVFEQHCKMAQEYMKVQTEIALLLQRKQELVAELDQDEKDQQNTSRLVQEHKKLLDENKSLSTYYQQCKKQLEVIRSQQQKRQGTS
For B1, the binding result is “binds”.

The record behind these values is publication PMC7085222, “TBC1D25 Regulates Cardiac Remodeling Through TAK1 Signaling Pathway” (International Journal of Biological Sciences, 2020).
